Experimental data published in patent publication US20100240537A1, “Substituted 6-(alkylbenzylamino)purine derivatives for use as cytokinin receptor antagonists and preparations containing these derivatives” (priority 2007, published 2010).
At least one structure is not confirmed: it was looked up by name or label, or the drawing left a doubt.

The chains behind the UniProt entries cited, without tags or fusion partners. Where a name states a change or a piece, a line headed by the entry shows the natural chain unless it says otherwise.
UniProt Q9C5U0: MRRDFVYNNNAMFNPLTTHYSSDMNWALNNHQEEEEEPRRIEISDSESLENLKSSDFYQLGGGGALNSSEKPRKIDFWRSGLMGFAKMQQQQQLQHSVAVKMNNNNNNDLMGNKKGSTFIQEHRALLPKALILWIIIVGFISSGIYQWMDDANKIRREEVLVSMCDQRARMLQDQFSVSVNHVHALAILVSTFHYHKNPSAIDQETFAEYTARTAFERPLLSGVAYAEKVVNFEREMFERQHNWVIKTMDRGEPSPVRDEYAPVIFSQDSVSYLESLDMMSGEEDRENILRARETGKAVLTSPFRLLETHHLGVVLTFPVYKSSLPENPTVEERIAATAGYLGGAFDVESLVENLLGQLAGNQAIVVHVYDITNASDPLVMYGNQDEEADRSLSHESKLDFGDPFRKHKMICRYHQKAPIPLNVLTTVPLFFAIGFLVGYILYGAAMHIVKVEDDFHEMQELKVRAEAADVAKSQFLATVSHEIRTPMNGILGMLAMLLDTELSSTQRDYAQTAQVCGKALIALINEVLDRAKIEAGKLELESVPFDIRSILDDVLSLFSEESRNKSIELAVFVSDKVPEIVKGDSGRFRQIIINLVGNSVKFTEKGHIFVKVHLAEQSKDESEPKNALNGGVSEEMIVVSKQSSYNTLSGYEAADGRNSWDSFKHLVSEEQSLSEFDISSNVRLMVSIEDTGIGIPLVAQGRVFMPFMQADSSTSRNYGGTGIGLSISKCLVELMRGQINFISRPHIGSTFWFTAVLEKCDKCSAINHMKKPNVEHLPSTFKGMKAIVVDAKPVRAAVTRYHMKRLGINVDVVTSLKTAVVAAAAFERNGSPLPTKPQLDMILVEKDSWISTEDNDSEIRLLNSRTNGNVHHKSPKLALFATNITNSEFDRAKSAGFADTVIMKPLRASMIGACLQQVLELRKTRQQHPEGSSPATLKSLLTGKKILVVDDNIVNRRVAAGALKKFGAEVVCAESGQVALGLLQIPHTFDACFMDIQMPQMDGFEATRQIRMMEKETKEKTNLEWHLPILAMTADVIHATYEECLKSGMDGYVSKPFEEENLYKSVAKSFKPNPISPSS

Tests used:
[1] = system: Triticum aestivum cv. Hereward leaf segments; assay: Senescence bioassay on wheat leaf segments (chlorophyll retention); details: 0.5-1 μM BA + 10 nM-10 μM compound 8
[2] = system: PARR5::GUS reporter (ARR5); assay: Cytokinin-induced PARR5::GUS reporter expression in transgenic Arabidopsis seedlings; type: in vivo
[3] = system: Amaranthus caudatus var. atropurpurea explants; assay: Amaranthus bioassay (betacyanin formation); details: 0.5-1 μM BA + 10 nM-10 μM compound 8
CRE1/AHK4 = biological target: T1, CRE1/AHK4 (Arabidopsis thaliana, UniProt Q9C5U0); assay: Double-reciprocal plot of 3HtZ binding to CRE1/AHK4 membranes; details: FIG. 1B
T1 construct: expressed in transfected cells; host or cells: Escherichia coli KMI001, plasmid pIN-III-AHK4

[4] = system: cytokinin-dependent tobacco callus Nicotiana tabacum L. cv. Wisconsin 38; assay: Cytokinin-dependent tobacco callus bioassay; type: cell-based; details: 0.5-1 μM BA + 10 nM-10 μM compound 8
Procedure: Stimulatory effect of newly prepared derivatives was tested using cytokinin-dependent tobacco callus. The cytokinin-dependent tobacco callus Nicotiana tabacum L. cv. Wisconsin 38 was maintained at 25° C. in darkness on modified MS medium, containing per 1 liter: 4 μmol of nicotinic acid, 2.4 μmol of pyridoxine hydrochloride, 1.2 μmol of thiamine, 26.6 μmol of glycine, 1.37 μmol of glutamine, 1.8 μmol of myo-inositol, 30 g of sucrose, 8 g of agar, 5.37 μmol of NAA and 0.5 μmol of the compound tested. Subcultivation was carried out every three weeks. Fourteen days before the bioassay, the callus tissue was transferred to the media without 6-benzylaminopurine. The biological activity was determined from the increase of the fresh callus weight after four weeks of cultivation. Five replicates were prepared for each concentration of the compound tested and the entire test was repeated twice. […] The compounds to be tested were dissolved in dimethylsulfoxide (DMSO) and the solution brought up to 10^−3M with distilled water. This stock solution was further diluted with the respective media used for the biotest to a concentration ranging from 10^−8M to 10^−4M.
From the obtained data, the concentration with the highest activity was selected for each compound tested. Relative activity of the compound at this concentration was calculated (Table 3). […]

[5] = system: cytokinin receptors CRE1/AHK4 and AHK3; assay: Binding assay with membranes of E. coli expressing cytokinin receptors, competition with 3HtZ; parameters: species or system Arabidopsis; details: competition with 2 nM radiolabeled trans-zeatin, read-out: concentration decreasing the binding of 3HtZ to 50%
Procedure: Isolation of E. coli membranes and binding assays were carried out as previously described by Romanov et al. (Romanov et al. Analytical Biochemistry 347:129-134, 2005).

[6] = 2.5 μM BA + 5 μM compound 8, 4 h, qualitative

Cc1cccc(CNc2ncnc3nc[nH]c23)c1O [Compound 8, 6-(2-hydroxy-3-methylbenzylamino)purine]
antagonistic effect on cytokinin-induced retention of chlorophyll [1]: significantly decreased biological effect
BA-induced reporter gene expression in the shoot (GUS staining) [2, 6]: completely inhibited
expression of ARR5:GUS induced by cytokinin in the root (GUS staining) [2, 6]: decreased expression
ARR5:GUS expression, quantitative assay (MUG fluorescence) ([2]; triggered by 1 μM BA, 17 h): dose-dependent decrease
antagonistic effect on cytokinin stimulated betacyanin formation [3]: significantly decreased biological effect
character of inhibition of binding of 3HtZ (CRE1/AHK4): competitive
antagonistic effect on BA-induced callus cell proliferation [4]: significantly decreased biological effect
IC50 [5]: 3 µM
